These are yes or no findings as the source states them, for the method shown. Where a sequence is shown, tags or fusion partners need not be part of it.

This test deals with T1, HiCaM fusion construct displaying the C-terminal 11 amino acids of P1 and P2.
T1 sequence: SDDDMGFGLFD
Nature of the test: pull-down; both purified.

B1: alpha-sarcin (enzyme, UniProt P00655 28-177)
chain: AVTWTCLNDQKNPKTNKYETKRLLYNQNKAESNSHHAPLSDGKTGSSYPHWFTNGYDGDGKLPKGRTPIKFGKSDCDRPPKHSKDGNGKTDHYLLEFPTFPDGHDYKFDSKKPKENPGPARVIYTYPNKVFCGIIAHTKENQGELKLCSH
For the molecule B1, the binding result was “no binding”.
